Results deposited as PubChem BioAssay AID1159584 (Peter MacCallum Cancer Centre, 2016)
This is one part, drawn at random, of about 18,000 reagents. Not given: the amount of reagent, the time to read-out.

Test: 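Genes whose loss is lethal only together with E-cadherin loss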 (primary screen)
Cells: human MCF10A breast epithelial cells, parental and CDH1-null
Reagent: siRNA against human genes
Measured: 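Cell viability by CellTiter-Glo ATP luminescence, each line scaled to the mean of mock wells across plates, then CDH1-null over parental ratio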
Scale: CDH1-null / parental viability ratio: higher = CDH1-null cells survive relatively better than parental; CDH1-null viability vs mock: higher = more viable CDH1-null cells; parental viability vs mock: higher = more viable parental cells

The opening 2 records, to show the layout:
Target gene,CDH1-null / parental viability ratio,CDH1-null viability vs mock (fraction of mock),parental viability vs mock (fraction of mock)
RBM19,1.03,0.68,0.66
H2AJ,0.97,0.66,0.68

The listing, from the first entry:
Target gene,CDH1-null / parental viability ratio,CDH1-null viability vs mock (fraction of mock),parental viability vs mock (fraction of mock)
RBM19,1.03,0.68,0.66
H2AJ,0.97,0.66,0.68
COX8C,0.9,0.91,1.01
CCDC88B,0.79,1.12,1.42
NOCT,0.98,0.8,0.82
ADAM15,1.13,0.88,0.78
RNF7,1.02,0.96,0.94
OR52A1,1.19,0.92,0.77
ABCG8,1.07,0.96,0.9
NOVA2,1.09,0.88,0.81
FURIN,0.94,0.68,0.72
TAS2R5,1.01,0.75,0.74
CHRFAM7A,0.88,0.87,0.99
TSC22D4,0.81,0.86,1.06
ARHGAP32,1.17,0.94,0.8
OAZ1,0.95,0.92,0.97
DSCR10,1.04,0.78,0.75
BRICD5,0.98,0.9,0.92
BTG2,0.9,0.86,0.96
HSPG2,0.84,0.61,0.73
P2RY1,0.77,0.77,1
LARP7,1.23,1.16,0.94
BIRC2,0.9,0.43,0.48
TMEM123,0.73,0.63,0.86
HCRTR2,0.85,0.97,1.14
H4C5,1.18,1.04,0.88
DRD2,1.04,0.72,0.69
SBDS,1.14,0.98,0.86
OR51A7,0.67,0.55,0.82
HMHB1,1.21,0.8,0.66
SRD5A3,0.93,0.84,0.9
USF2,1.06,0.99,0.93
PDE7B,1.08,1.18,1.09
MAP4K3,0.73,0.69,0.94
PHLDB2,0.67,0.77,1.15
NCBP1,1.06,0.52,0.49
SGO1,1.07,0.49,0.46
P2RX5,1.07,0.91,0.85
KRABD4,0.81,0.76,0.94
WSB1,0.89,0.73,0.82
FAM135A,0.95,0.96,1.01
MMS22L,1.08,0.71,0.66
VPREB1,0.95,0.8,0.84
EML2,0.98,0.82,0.84
TAS2R1,1.03,0.78,0.76
FAM110B,0.95,0.83,0.87
SCN8A,1.16,0.88,0.76
KRT7,0.95,0.75,0.79
MYL4,0.79,0.26,0.33
PSMB2,1.22,0.5,0.41
PRSS16,1.14,1,0.88
CCL23,1.25,0.84,0.67
CTBS,0.85,0.8,0.94
ANKRD13A,0.99,0.81,0.82
BMS1,1.13,0.34,0.3
CHAT,0.92,0.79,0.86
ZNF708,1.45,0.61,0.42
IL7,0.9,0.74,0.82
HVCN1,1.34,1.1,0.82
EFNA2,1.02,0.92,0.9
FBLN2,1.38,0.76,0.55
GSTP1,1.01,0.95,0.94
LCORL,0.99,0.9,0.91
PKD1,1.25,0.8,0.64
ANO3,1.58,0.9,0.57
KIAA1755,0.97,0.6,0.62
CACNB2,1.26,1.08,0.86
RAB41,1.07,0.81,0.76
